These are yes or no findings as the source states them, for the method shown. In cells and extracts the contact can be indirect.

Sequences of proteins named here, by UniProt entry; tags and fusion partners are left off.
UniProt Q9ULU4: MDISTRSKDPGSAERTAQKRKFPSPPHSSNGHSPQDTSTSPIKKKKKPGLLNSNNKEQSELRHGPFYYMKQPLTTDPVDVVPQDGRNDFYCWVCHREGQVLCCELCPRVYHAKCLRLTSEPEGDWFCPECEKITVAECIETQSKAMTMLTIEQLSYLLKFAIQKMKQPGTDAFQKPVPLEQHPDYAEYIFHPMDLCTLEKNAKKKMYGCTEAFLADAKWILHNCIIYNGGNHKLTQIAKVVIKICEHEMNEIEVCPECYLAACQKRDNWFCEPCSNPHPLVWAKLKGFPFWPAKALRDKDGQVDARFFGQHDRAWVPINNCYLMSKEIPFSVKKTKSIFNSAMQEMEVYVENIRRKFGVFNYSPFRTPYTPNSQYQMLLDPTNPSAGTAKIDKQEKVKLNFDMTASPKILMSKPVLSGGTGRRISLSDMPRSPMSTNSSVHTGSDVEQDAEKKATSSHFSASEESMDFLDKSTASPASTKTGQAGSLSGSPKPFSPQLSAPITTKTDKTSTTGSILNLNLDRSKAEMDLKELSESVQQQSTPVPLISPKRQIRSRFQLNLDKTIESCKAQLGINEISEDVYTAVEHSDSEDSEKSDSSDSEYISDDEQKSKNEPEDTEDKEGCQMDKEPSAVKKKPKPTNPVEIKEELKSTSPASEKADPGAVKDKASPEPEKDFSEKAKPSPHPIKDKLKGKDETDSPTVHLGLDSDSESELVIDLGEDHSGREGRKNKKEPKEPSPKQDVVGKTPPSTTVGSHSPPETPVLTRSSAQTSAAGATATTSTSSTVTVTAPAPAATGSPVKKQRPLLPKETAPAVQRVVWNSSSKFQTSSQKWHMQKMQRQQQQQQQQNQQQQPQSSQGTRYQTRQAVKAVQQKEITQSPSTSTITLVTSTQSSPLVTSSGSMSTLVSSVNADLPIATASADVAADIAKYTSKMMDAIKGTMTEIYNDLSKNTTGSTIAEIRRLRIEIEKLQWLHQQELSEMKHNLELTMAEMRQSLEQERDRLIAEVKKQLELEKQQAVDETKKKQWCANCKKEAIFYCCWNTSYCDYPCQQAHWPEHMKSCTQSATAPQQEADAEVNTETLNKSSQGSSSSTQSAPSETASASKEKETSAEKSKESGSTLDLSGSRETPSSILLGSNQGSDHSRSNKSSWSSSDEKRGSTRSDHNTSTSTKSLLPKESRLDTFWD
UniProt Q92800: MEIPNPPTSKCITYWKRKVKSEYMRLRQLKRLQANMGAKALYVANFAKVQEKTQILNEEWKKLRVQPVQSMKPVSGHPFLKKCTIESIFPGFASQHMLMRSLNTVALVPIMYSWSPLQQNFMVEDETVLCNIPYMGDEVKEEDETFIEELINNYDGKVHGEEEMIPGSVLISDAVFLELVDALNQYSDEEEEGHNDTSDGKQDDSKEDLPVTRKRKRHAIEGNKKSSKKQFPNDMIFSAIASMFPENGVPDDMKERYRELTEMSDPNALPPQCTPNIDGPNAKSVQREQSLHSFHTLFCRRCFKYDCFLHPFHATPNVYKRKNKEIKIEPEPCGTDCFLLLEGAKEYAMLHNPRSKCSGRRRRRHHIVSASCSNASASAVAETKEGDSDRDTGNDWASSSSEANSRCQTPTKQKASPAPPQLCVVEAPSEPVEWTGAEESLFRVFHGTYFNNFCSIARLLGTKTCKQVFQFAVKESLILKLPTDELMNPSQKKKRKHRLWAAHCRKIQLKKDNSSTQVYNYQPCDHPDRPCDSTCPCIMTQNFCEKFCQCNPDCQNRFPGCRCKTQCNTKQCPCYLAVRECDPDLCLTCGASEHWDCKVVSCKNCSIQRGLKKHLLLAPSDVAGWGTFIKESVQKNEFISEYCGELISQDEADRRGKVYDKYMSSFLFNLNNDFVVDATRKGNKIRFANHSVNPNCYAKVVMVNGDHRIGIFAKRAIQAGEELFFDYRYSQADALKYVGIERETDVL

This test deals with ZMYND8 (endogenous) (human (endogenous in 786-O and A498)) (UniProt Q9ULU4). The test can be described thus: co-IP; endogenous proteins from 786-O and A498 cell lysates, Western blot; also with lambda protein phosphatase on the lysate, sgZMYND8, sgCDK1, RO-3306 (10 uM, 24 h) or roscovitine. For orientation: In western blotting, separated proteins are transferred to a membrane and probed.

“EZH1 (endogenous) (from UniProt Q92800 1-747)”: the binding entry is “no binding”.

The values above are taken from PMC7923384.
